Values quoted from earlier work in US20170326125A1, “MULTISUBSTITUTED AROMATIC COMPOUNDS AS INHIBITORS OF THROMBIN” (VERSEON CORPORATION, priority 2016, published 2017).
For at least one compound, name, drawing or mass did not settle the structure.

Settings: SPORTIF III and V combined; cited from earlier work

In the case of `CCOC(=O)CN[C@@H](C(=O)N1CC[C@H]1C(=O)NCc1ccc(/C(N)=N\O)cc1)C1CCCCC1` [ximelagatran], the “relative risk reduction in the composite outcome measure of all strokes, systemic embolic events, major bleeding, and death” value is given as 16%.
